Assay results: article PMC10866661
Results are given in words; binding and its absence hold for the method and conditions named. Binding seen in cells or lysates may run through a third protein. Some binding calls cover weakened binding; strength is not graded here. Sequences can lack the tags named with a protein.

Legend:
[1] = target: T1, FLAG-tagged COPA p.C1013S (C-terminal domain mutant) (human) (UniProt P53621); test: co-IP; HEK293T cells cotransfected with FLAG-tagged WT or mutant COPA, COPB2 and COPE; whole-cell extract 48 h after transfection incubated overnight with anti-DDK (FLAG) antibody, Protein G magnetic beads, washes with PBS 0.1% Tween-20; immunoblot of eluate and input for FLAG, COPB2 and COPE
T1 sequence: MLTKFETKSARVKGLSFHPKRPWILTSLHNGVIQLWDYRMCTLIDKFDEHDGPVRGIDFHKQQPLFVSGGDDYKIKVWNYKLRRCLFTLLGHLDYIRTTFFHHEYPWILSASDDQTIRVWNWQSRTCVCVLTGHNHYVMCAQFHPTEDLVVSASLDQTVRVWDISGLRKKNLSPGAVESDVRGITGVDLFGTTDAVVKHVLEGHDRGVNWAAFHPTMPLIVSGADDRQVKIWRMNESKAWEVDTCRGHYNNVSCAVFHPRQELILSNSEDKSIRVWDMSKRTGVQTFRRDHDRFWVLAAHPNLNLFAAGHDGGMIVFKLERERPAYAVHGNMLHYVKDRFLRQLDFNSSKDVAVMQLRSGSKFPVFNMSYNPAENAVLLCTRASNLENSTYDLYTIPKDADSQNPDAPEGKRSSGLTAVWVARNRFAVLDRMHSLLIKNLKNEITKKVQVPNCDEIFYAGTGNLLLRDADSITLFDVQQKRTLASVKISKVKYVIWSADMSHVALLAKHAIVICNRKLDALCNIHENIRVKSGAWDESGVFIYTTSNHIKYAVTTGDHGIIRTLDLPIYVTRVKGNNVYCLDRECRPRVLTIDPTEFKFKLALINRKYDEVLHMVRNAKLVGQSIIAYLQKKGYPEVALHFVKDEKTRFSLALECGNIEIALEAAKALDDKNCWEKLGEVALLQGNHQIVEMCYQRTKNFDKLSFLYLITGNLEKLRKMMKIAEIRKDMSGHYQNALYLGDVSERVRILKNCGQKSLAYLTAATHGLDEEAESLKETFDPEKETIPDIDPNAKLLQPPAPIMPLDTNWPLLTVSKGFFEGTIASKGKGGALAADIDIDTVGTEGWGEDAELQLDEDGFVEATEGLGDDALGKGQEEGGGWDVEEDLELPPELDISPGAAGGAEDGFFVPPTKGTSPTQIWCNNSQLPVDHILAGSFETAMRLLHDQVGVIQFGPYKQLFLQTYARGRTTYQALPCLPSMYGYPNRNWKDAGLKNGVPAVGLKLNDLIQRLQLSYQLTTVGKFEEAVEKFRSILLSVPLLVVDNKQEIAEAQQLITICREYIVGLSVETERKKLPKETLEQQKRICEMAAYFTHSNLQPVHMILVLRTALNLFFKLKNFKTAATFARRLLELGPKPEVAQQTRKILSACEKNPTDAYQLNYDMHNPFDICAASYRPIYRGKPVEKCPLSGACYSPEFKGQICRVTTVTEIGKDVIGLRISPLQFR

[2] = target: T2, FLAG-tagged wild-type coatomer protein complex subunit α (COPA) (human) (UniProt P53621); test: as above
T2 sequence: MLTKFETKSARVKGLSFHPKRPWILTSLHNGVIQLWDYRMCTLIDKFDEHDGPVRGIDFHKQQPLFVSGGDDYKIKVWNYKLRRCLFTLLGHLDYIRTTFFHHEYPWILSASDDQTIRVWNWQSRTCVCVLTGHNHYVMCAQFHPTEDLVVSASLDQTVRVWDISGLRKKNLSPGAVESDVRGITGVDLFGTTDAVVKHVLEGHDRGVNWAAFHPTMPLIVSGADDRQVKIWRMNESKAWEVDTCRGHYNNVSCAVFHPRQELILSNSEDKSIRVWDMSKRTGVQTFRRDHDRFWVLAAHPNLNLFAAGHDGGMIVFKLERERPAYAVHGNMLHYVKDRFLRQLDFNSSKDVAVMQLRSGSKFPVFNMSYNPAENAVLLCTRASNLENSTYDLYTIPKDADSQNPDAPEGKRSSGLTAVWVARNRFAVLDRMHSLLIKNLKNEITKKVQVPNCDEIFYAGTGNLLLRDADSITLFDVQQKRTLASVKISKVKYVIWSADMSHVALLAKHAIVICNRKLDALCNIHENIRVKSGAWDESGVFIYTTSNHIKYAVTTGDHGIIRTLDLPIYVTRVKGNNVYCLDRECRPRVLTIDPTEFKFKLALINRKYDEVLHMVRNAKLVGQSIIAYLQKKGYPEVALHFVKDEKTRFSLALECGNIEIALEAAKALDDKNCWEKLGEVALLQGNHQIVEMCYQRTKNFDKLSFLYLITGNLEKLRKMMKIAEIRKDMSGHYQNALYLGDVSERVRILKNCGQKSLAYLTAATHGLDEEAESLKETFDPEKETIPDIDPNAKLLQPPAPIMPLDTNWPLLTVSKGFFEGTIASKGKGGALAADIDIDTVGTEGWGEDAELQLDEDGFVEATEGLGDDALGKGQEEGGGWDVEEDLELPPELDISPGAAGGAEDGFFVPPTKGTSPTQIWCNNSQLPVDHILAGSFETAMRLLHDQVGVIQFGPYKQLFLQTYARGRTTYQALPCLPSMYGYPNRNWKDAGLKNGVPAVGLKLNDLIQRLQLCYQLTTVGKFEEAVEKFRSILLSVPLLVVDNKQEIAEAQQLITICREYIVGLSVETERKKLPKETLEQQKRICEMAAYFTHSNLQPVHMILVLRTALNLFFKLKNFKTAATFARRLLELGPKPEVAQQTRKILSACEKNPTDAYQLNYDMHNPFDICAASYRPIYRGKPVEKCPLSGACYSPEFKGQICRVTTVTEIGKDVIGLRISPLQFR

- binding [1]: binds
- binding [2]: binds
B1: COPB2 (protein, UniProt P35606 1-906)
chain: MPLRLDIKRKLTARSDRVKSVDLHPTEPWMLASLYNGSVCVWNHETQTLVKTFEVCDLPVRAAKFVARKNWVVTGADDMQIRVFNYNTLERVHMFEAHSDYIRCIAVHPTQPFILTSSDDMLIKLWDWDKKWSCSQVFEGHTHYVMQIVINPKDNNQFASASLDRTIKVWQLGSSSPNFTLEGHEKGVNCIDYYSGGDKPYLISGADDRLVKIWDYQNKTCVQTLEGHAQNVSCASFHPELPIIITGSEDGTVRIWHSSTYRLESTLNYGMERVWCVASLRGSNNVALGYDEGSIIVKLGREEPAMSMDANGKIIWAKHSEVQQANLKAMGDAEIKDGERLPLAVKDMGSCEIYPQTIQHNPNGRFVVVCGDGEYIIYTAMALRNKSFGSAQEFAWAHDSSEYAIRESNSIVKIFKNFKEKKSFKPDFGAESIYGGFLLGVRSVNGLAFYDWDNTELIRRIEIQPKHIFWSDSGELVCIATEESFFILKYLSEKVLAAQETHEGVTEDGIEDAFEVLGEIQEIVKTGLWVGDCFIYTSSVNRLNYYVGGEIVTIAHLDRTMYLLGYIPKDNRLYLGDKELNIISYSLLVSVLEYQTAVMRRDFSMADKVLPTIPKEQRTRVAHFLEKQGFKQQALTVSTDPEHRFELALQLGELKIAYQLAVEAESEQKWKQLAELAISKCQFGLAQECLHHAQDYGGLLLLATASGNANMVNKLAEGAERDGKNNVAFMSYFLQGKVDACLELLIRTGRLPEAAFLARTYLPSQVSRVVKLWRENLSKVNQKAAESLADPTEYENLFPGLKEAFVVEEWVKETHADLWPAKQYPLVTPNEERNVMEEGKDFQPSRSTAQQELDGKPASPTPVIVASHTANKEEKSLLELEVDLDNLELEDIDTTDINLDEDILDD
